# US5750782A, “Nitroaniline derivatives and their use as anti-tumour agents” (priority 1996, dated 1998)
# For at least one compound, name, drawing or mass did not settle the structure.
# Columns and labels:
# Format in all cases: cell-based
# UV4 cells = test: Clonogenic assay, UV4 cells (CT10), aerobic and hypoxic; settings: for CT10 (UV4): air, concentration x time to reduce UV4 cell survival to 10% of control
# Text: The product (in μM-hr) of the drug concentration times the exposure time to reduce cell survival to 10% of control values in the clonogenic assay.
# Ratio of CT10 values after exposure of UV4 cells as detailed above under either aerobic (air) or hypoxic (N2) conditions (=aerobic CT10 /hypoxic CT10).
# AA8 = test: Growth inhibition (IC50), AA8 cells, aerobic; settings: air, 18 h exposure
# Description: (§1) Growth inhibition studies were performed as described in detail elsewhere (W.R. Wilson, R.F. Anderson and W.A Denny. J Med. Chem., 1989, 32, 23; G.J. Finlay, B.C. Baguley and W.R. Wilson. Anal Biochem., 1984, 139, 172.), using 200 viable AA8 or 300 viable UV4 cells plus 5000 lethally-irradiated AA8 feeder cells per well in 96-well tissue culture dishes. AA8 and UV4 cells were maintained in logarithmic-phase growth in […] tissue culture flasks with subculture twice weekly by trypsinization. The growth medium was antibiotic-free α-MEM with 10% v/v heat-inactivated ([…], 40 min) fetal calf serum. Doubling times were approximately 14h for AA8 and 15h for UV4 cells.
# AA8 and UV4 cell lines = test: Ratio of IC50 values against AA8 and UV4 cell lines (HFair); settings: 18 h exposure
# Description: as §1
# Ratio of IC50 values for a compound after exposure as detailed above against AA8 and UV4 cell lines (HF=IC50 (AA8)/IC50 (UV4)).
SMILES,"CT10 ratio (air/N2) (UV4 cells; UV4 cells, aerobic CT10/hypoxic CT10)",CT10 (UV4) (UV4 cells) [μM-h],IC50 (AA8) [µM],HF (air) = IC50 (AA8)/IC50 (UV4) (AA8 and UV4 cell lines)
"CN(C)CCNC(=O)c1cc(N(CCCl)CCCl)c([N+](=O)[O-])cc1[N+](=O)[O-] [Compound 11, N-[2-(dimethylamino)ethyl] [N,N-bis(2-chloroethyl)amino]-2,4-dinitrobenzamide]",60,1130,230,4.2
"CNC(=O)c1cc(N(CCCl)CCCl)c([N+](=O)[O-])cc1[N+](=O)[O-] [Compound 8, N-methyl [N,N-bis(2-chloroethyl)amino]-2,4-dinitrobenzamide]",,> 360,> 100,
